According to paper PMC9319246:
No constants are given. Whether binding was seen depends on the method and setting. Binding seen in cells or lysates may run through a third protein. A yes stands for co-enrichment or nearness to the bait. Other partners may have been found. Tags and fused reporters may be left off the sequences shown.

Sequences of proteins named here, by UniProt entry; tags and fusion partners are left off.
UniProt O15446: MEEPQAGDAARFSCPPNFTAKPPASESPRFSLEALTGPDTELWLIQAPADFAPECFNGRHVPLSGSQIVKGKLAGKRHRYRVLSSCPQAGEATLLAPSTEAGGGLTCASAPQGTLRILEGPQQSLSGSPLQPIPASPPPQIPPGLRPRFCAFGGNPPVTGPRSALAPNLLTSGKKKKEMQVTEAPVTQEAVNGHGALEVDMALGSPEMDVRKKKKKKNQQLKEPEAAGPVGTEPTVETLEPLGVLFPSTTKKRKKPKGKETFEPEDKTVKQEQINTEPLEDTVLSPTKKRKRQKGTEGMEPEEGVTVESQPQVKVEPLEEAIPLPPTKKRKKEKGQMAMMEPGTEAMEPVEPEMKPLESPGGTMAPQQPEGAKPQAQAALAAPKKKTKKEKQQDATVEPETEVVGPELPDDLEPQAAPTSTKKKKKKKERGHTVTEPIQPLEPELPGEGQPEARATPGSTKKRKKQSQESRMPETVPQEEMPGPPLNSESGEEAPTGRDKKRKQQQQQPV

Tests used:
[1] = biological target: T1, endogenously FLAG-tagged TTC30A (human (endogenous in HEK293T)) (UniProt Q86WT1); experiment: affinity purification with mass spectrometry; anti-Flag-M2-agarose beads on lysates of endogenously FLAG-tagged TTC30A or TTC30B HEK293T cells, serum starved for 16 h; elution with Flag-peptide; label-free LC-MS/MS; six biological replicates against an untagged Cas9 empty-vector control clone
T1 sequence: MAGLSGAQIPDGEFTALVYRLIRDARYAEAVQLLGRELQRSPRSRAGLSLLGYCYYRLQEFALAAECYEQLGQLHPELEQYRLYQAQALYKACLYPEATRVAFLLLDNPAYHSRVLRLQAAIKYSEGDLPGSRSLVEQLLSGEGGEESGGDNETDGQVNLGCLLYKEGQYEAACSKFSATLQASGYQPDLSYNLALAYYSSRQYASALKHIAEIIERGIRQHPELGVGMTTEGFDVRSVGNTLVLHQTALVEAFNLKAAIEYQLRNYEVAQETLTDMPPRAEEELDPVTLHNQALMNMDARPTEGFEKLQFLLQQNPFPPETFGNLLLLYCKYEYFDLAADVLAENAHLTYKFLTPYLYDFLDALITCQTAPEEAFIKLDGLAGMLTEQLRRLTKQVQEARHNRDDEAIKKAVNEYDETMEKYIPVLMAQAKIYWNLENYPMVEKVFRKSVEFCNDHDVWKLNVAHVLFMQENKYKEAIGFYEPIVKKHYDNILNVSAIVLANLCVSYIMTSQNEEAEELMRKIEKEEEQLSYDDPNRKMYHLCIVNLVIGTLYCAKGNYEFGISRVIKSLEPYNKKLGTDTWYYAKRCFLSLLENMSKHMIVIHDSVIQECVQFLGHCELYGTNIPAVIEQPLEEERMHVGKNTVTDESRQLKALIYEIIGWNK

[2] = biological target: T2, Strep/FLAG-tagged IFT88 (UniProt Q13099); experiment: affinity purification with mass spectrometry; Strep-Tactin Superflow on lysates of HEK293T Cas9 control, TTC30B KO and TTC30A/B KO cells transfected with Strep/FLAG-tagged LCA5 or IFT88 (Strep/FLAG-RAF1 as control); Strep elution buffer; label-free LC-MS/MS; four biological replicates
T2 sequence: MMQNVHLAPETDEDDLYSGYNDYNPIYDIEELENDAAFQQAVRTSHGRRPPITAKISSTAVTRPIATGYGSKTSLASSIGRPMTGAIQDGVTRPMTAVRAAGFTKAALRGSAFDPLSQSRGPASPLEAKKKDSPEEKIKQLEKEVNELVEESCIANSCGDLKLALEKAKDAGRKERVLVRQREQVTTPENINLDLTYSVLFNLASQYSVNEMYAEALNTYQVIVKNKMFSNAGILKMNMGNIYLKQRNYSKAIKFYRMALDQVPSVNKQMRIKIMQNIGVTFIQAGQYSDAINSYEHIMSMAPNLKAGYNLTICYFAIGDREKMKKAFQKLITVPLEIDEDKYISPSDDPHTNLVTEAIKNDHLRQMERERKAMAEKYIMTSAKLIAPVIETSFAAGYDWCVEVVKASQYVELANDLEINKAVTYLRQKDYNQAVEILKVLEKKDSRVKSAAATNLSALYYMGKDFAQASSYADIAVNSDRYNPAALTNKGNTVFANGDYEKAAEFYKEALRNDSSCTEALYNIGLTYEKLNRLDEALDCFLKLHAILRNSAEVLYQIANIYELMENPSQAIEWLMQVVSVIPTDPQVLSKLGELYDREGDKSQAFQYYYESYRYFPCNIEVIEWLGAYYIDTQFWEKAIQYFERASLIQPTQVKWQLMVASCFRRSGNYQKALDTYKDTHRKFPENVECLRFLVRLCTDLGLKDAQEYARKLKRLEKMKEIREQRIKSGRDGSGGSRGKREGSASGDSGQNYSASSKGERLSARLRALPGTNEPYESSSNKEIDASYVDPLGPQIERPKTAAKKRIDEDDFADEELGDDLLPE

[3] = biological target: T3, Strep/FLAG-tagged LCA5 (UniProt Q86VQ0); experiment: as above
T3 sequence: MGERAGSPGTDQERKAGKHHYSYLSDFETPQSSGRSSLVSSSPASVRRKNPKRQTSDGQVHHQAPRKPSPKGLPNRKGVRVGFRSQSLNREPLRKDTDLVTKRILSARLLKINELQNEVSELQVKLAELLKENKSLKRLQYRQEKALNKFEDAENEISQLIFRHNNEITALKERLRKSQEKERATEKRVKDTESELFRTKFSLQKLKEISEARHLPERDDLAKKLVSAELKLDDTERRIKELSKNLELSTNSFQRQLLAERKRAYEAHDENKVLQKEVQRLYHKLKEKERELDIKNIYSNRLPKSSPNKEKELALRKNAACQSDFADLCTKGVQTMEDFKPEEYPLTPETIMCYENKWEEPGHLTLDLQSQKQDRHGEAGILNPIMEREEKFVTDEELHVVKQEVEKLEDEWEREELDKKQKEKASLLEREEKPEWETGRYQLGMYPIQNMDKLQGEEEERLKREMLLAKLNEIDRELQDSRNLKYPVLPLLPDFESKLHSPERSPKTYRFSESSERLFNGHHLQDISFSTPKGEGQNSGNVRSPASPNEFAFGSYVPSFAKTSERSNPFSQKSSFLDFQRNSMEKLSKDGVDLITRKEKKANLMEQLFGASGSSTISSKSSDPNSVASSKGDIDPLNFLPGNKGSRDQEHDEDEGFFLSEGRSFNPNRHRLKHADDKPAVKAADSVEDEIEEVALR

binding [1] | binding [2] | binding [3] | Molecule
binds | – | – | CD3EAP (from UniProt O15446 1-510)
– | binds | binds | TRAF3IP1 (protein, UniProt Q8TDR0 1-691) MNAAVVRRTQEALGKVIRRPPLTEKLLSKPPFRYLHDIITEVIRMTGFMKGLYTDAEMKSDNVKDKDAKISFLQKAIDVVVMVSGEPLLAKPARIVAGHEPERTNELLQIIGKCCLNKLSSDDAVRRVLAGEKGEVKGRASLTSRSQELDNKNVREEESRVHKNTEDRGDAEIKERSTSRDRKQKEELKEDRKPREKDKDKEKAKENGGNRHREGERERAKARARPDNERQKDRGNRERDRDSERKKETERKSEGGKEKERLRDRDRERDRDKGKDRDRRRVKNGEHSWDLDREKNREHDKPEKKSASSGEMSKKLSDGTFKDSKAETETEISTRASKSLTTKTSKRRSKNSVEGRKEDNISAKSLDSIVSGINNEPNQETTTSEIGTKEANINSTSISDDNSASLRCENIQPNPTEKQKGDSTSDAEGDAGPAGQDKSEVPETPEIPNELSSNIRRIPRPGSARPAPPRVKRQDSMEALQMDRSGSGKTVSNVITESHNSDNEEDDQFVVEAAPQLSEMSEIEMVTAVELEEEEKHGGLVKKILETKKDYEKLQQSPKPGEKERSLFESAWKKEKDIVSKEIEKLRTSIQTLCKSALPLGKIMDYIQEDVDAMQNELQMWHSENRQHAEALQQEQRITDCAVEPLKAELAELEQLIKDQQDKICAVKANILKNEEKIQKMVYSINLTSRR
– | binds | binds | CLUAP1 (protein, UniProt Q96AJ1 1-413) MSFRDLRNFTEMMRALGYPRHISMENFRTPNFGLVSEVLLWLVKRYEPQTDIPPDVDTEQDRVFFIKAIAQFMATKAHIKLNTKKLYQADGYAVKELLKITSVLYNAMKTKGMEGSEIVEEDVNKFKFDLGSKIADLKAARQLASEITSKGASLYDLLGMEVELREMRTEAIARPLEINETEKVMRIAIKEILTQVQKTKDLLNNVASDEANLEAKIEKRKLELERNRKRLETLQSVRPCFMDEYEKTEEELQKQYDTYLEKFQNLTYLEQQLEDHHRMEQERFEEAKNTLCLIQNKLKEEEKRLLKSGSNDDSDIDIQEDDESDSELEERRLPKPQTAMEMLMQGRPGKRIVGTMQGGDSDDNEDSEESEIDMEDDDDEDDDLEDESISLSPTKPNRRVRKSEPLDESDNDF
– | binds | binds | IFT80 (protein, UniProt Q9P2H3 1-777) MRLKISLLKEPKHQELVSCVGWTTAEELYSCSDDHQIVKWNLLTSETTQIVKLPDDIYPIDFHWFPKSLGVKKQTQAESFVLTSSDGKFHLISKLGRVEKSVEAHCGAVLAGRWNYEGTALVTVGEDGQIKIWSKTGMLRSTLAQQGTPVYSVAWGPDSEKVLYTAGKQLIIKPLQPNAKVLQWKAHDGIILKVDWNSVNDLILSAGEDCKYKVWDSYGRPLYNSQPHEHPITSVAWAPDGELFAVGSFHTLRLCDKTGWSYALEKPNTGSIFNIAWSIDGTQIAGACGNGHVVFAHVVEQHWEWKNFQVTLTKRRAMQVRNVLNDAVDLLEFRDRVIKASLNYAHLVVSTSLQCYVFSTKNWNTPIIFDLKEGTVSLILQAERHFLLVDGSSIYLYSYEGRFISSPKFPGMRTDILNAQTVSLSNDTIAIRDKADEKIIFLFEASTGKPLGDGKFLSHKNEILEIALDQKGLTNDRKIAFIDKNRDLCITSVKRFGKEEQIIKLGTMVHTLAWNDTCNILCGLQDTRFIVWYYPNTVYVDRDILPKTLYERDASEFSKNPHIVSFVGNQVTIRRADGSLVHISITPYPAILHEYVSSSKWEDAVRLCRFVKEQTMWACLAAMAVANRDMTTAEIAYAAIGEIDKVQYINSIKNLPSKESKMAHILLFSGNIQEAEIVLLQAGLVYQAIQININLYNWERALELAVKYKTHVDTVLAYRQKFLETFGKQETNKRYLHYAEGLQIDWEKIKAKIEMEITKEREQSSSSQSSKSIGLKP
binds | – | – | CWC27 (protein, UniProt Q6UX04 1-472) MSNIYIQEPPTNGKVLLKTTAGDIDIELWSKEAPKACRNFIQLCLEAYYDNTIFHRVVPGFIVQGGDPTGTGSGGESIYGAPFKDEFHSRLRFNRRGLVAMANAGSHDNGSQFFFTLGRADELNNKHTIFGKVTGDTVYNMLRLSEVDIDDDERPHNPHKIKSCEVLFNPFDDIIPREIKRLKKEKPEEEVKKLKPKGTKNFSLLSFGEEAEEEEEEVNRVSQSMKGKSKSSHDLLKDDPHLSSVPVVESEKGDAPDLVDDGEDESAEHDEYIDGDEKNLMRERIAKKLKKDTSANVKSAGEGEVEKKSVSRSEELRKEARQLKRELLAAKQKKVENAAKQAEKRSEEEEAPPDGAVAEYRREKQKYEALRKQQSKKGTSREDQTLALLNQFKSKLTQAIAETPENDIPETEVEDDEGWMSHVLQFEDKSRKVKDASMQDSDTFEIYDPRNPVNKRRREESKKLMREKKERR
binds | – | – | RPP25L (protein, UniProt Q8N5L8 1-163) MEHYRKAGSVELPAPSPMPQLPPDTLEMRVRDGSKIRNLLGLALGRLEGGSARHVVFSGSGRAAGKAVSCAEIVKRRVPGLHQLTKLRFLQTEDSWVPASPDTGLDPLTVRRHVPAVWVLLSRDPLDPNECGYQPPGAPPGLGSMPSSSCGPRSRRRARDTRS
binds | – | – | CARS (protein, UniProt P49589 1-748) MADSSGQQGKGRRVQPQWSPPAGTQPCRLHLYNSLTRNKEVFIPQDGKKVTWYCCGPTVYDASHMGHARSYISFDILRRVLKDYFKFDVFYCMNITDIDDKIIKRARQNHLFEQYREKRPEAAQLLEDVQAALKPFSVKLNETTDPDKKQMLERIQHAVQLATEPLEKAVQSRLTGEEVNSCVEVLLEEAKDLLSDWLDSTLGCDVTDNSIFSKLPKFWEGDFHRDMEALNVLPPDVLTRVSEYVPEIVNFVQKIVDNGYGYVSNGSVYFDTAKFASSEKHSYGKLVPEAVGDQKALQEGEGDLSISADRLSEKRSPNDFALWKASKPGEPSWPCPWGKGRPGWHIECSAMAGTLLGASMDIHGGGFDLRFPHHDNELAQSEAYFENDCWVRYFLHTGHLTIAGCKMSKSLKNFITIKDALKKHSARQLRLAFLMHSWKDTLDYSSNTMESALQYEKFLNEFFLNVKDILRAPVDITGQFEKWGEEEAELNKNFYDKKTAIHKALCDNVDTRTVMEEMRALVSQCNLYMAARKAVRKRPNQALLENIALYLTHMLKIFGAVEEDSSLGFPVGGPGTSLSLEATVMPYLQVLSEFREGVRKIAREQKVPEILQLSDALRDNILPELGVRFEDHEGLPTVVKLVDRNTLLKEREEKRRVEEEKRKKKEEAARRKQEQEAAKLAKMKIPPSEMFLSETDKYSKFDENGLPTHDMEGKELSKGQAKKLKKLFEAQEKLYKEYLQMAQNGSFQ
